Measured values from publication PMC12711579.
Results are given in words; binding and its absence hold for the method and conditions named. For some assays here: Binding can be weak; no strength is given.

Tests used:
Assay in all cases: two-hybrid; Clontech Matchmaker Gold; pGADT7 (AD) and pGBKT7 (BD) fusions co-transformed into Y2H Gold yeast; serial dilutions on DDO, TDO (−His/−Leu/−Trp, screens for weak interactions) and QDO (−His/−Ade/−Leu/−Trp, screens for strong interactions); 3–5 days at 30 °C
[1] = biological target: T1, ZYP1b (A. thaliana) (UniProt P61430)
T1 sequence: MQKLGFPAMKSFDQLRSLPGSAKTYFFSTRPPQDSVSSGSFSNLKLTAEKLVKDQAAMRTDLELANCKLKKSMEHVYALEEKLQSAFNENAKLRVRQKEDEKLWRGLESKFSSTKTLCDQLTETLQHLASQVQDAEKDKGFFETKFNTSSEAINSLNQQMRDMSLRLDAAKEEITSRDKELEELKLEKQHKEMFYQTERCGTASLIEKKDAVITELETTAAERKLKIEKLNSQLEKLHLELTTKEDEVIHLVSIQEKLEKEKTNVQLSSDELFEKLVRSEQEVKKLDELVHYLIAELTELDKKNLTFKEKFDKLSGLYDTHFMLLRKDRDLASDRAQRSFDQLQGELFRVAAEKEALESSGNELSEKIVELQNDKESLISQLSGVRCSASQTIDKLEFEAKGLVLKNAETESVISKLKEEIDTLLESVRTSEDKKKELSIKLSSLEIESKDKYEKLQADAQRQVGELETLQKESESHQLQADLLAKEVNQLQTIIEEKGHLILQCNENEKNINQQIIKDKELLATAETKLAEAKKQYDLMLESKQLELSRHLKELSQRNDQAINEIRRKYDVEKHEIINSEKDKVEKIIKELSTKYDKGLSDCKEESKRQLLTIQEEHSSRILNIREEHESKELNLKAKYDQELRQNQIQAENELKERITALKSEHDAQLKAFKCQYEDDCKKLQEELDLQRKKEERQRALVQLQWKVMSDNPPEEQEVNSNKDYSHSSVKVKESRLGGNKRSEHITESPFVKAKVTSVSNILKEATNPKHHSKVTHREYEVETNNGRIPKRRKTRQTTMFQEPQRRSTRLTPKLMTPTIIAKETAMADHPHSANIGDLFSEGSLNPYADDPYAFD

[2] = biological target: T2, HEI10 (A. thaliana) (UniProt F4HRI2)
T2 sequence: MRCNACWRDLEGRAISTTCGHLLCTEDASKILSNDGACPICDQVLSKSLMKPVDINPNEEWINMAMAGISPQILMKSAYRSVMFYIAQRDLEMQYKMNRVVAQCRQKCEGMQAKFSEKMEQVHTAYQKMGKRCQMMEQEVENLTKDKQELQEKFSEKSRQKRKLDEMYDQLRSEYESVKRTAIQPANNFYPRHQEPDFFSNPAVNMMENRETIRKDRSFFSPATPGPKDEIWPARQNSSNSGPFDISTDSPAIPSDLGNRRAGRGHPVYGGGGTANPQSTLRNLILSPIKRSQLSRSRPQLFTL

[3] = biological target: T3, PCH2 (A. thaliana) (UniProt Q8H1F9)
T3 sequence: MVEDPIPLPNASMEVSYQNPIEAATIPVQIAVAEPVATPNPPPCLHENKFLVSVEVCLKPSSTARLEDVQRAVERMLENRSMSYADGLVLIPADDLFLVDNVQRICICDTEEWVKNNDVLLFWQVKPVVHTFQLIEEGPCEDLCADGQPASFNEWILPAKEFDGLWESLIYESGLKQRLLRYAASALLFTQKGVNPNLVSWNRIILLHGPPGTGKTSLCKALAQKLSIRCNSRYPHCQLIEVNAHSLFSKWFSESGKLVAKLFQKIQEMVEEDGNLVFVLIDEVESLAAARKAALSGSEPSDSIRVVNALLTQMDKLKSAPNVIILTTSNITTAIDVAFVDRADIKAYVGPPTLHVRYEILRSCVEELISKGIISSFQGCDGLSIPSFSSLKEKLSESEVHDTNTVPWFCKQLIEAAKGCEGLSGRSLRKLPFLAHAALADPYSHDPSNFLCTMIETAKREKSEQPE

[4] = biological target: T4, ZYP1a (A. thaliana) (UniProt Q9LME2)
T4 sequence: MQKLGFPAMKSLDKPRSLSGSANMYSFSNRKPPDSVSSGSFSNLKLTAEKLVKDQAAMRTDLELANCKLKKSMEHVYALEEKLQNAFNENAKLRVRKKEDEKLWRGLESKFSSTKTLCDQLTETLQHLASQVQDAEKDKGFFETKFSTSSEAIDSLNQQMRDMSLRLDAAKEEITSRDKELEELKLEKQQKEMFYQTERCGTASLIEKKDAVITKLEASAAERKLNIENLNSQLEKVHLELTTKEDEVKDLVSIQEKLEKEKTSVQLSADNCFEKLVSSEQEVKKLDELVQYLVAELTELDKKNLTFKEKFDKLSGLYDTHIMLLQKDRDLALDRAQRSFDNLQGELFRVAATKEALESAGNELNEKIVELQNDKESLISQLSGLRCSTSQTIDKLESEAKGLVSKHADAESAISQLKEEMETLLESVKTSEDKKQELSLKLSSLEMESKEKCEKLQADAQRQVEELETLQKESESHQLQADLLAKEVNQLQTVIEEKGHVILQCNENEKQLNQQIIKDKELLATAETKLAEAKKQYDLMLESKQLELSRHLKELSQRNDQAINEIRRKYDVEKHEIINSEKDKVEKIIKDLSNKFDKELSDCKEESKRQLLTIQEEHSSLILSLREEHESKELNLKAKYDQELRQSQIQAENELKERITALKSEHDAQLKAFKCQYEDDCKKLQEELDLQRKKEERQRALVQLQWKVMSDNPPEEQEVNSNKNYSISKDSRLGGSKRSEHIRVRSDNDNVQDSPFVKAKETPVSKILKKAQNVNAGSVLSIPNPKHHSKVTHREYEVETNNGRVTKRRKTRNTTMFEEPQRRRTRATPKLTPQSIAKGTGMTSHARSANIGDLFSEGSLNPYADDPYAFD

[5] = biological target: ASY4 (A. thaliana)
[6] = biological target: SCEP1 (A. thaliana)
[7] = biological target: SCEP2 (A. thaliana)

Molecule: SCEP1 (A. thaliana)
- binding [1]: binds

Molecule: SCEP3 N terminus (residues 1–397) (from UniProt A0A1P8B5T3) (domain or fragment)
- binding [2]: no binding
- binding [3]: binds weakly
- binding [1]: binds weakly

Molecule: SCEP3 C-terminal coil (residues 714–801) (from UniProt A0A1P8B5T3) (domain or fragment)
- binding [1]: binds

Molecule: SCEP3 mid-coil (residues 487–579) (from UniProt A0A1P8B5T3) (domain or fragment)
- binding [1]: binds weakly

Molecule: SCEP3 C terminus (residues 480–801) (from UniProt A0A1P8B5T3) (domain or fragment)
- binding [3]: binds
- binding [4]: binds weakly

B1: ASY3 (protein, UniProt Q0WR66 1-793)
chain: MSDYRSFGSNYHPSSQSRKISIGVMADSQPKRNLVPDKDDGDVIARVEKLKSATVTELQANKKEKSDLAAKQRNSAQVTGHVTSPWRSPRSSHRKLGTLESVLCKQTSSLSGSKGLNKGLNGAHQTPARESFQNCPISSPQHSLGELNGGRNDRVMDRSPERMEEPPSAVLQQKVASQREKMDKPGKETNGTTDVLRSKLWEILGKASPANNEDVNSETPEVEKTNFKLSQDKGSNDDPLIKPRHNSDSIETDSESPENATRRPVTRSLLQRRVGAKGVQKKTKAGANLGRKCTEQVNSVFSFEEGLRGKIGTAVNSSVMPKKQRGRRKNTVVKCRKAHSRKKDEADWSRKEASKSNTPPRSESTETGKRSSSSDKKGSSHDLHPQSKARKQKPDISTREGDFHPSPEAEAAALPEMSQGLSKNGDKHERPSNIFREKSVEPENEFQSPTFGYKAPISSPSPCCSPEASPLQPRNISPTLDETETPIFSFGTKKTSQGTTGQASDTEKRLPDFLEKKRDYSFRRESSPEPNEDLVLSDPSSDERDSDGSREDSPVLGHNISPEERETANWTNERSMLGPSSVKRNSNLKGIGRVVLSPPSPLSKGIDKTDSFQHCSEMDEDEDEGLGRAVALFAMALQNFERKLKSAAEKKSSEIIASVSEEIHLELENIKSHIITEAGKTSNLAKTKRKHAETRLQEQEEKMRMIHEKFKDDVSHHLEDFKSTIEELEANQSELKGSIKKQRTSHQKLIAHFEGGIETKLDDATKRIDSVNKSARGKMLQLKMIVAECLRDD
- binding [5]: binds

B2: ZYP1b (protein, UniProt P61430 1-856)
chain: MQKLGFPAMKSFDQLRSLPGSAKTYFFSTRPPQDSVSSGSFSNLKLTAEKLVKDQAAMRTDLELANCKLKKSMEHVYALEEKLQSAFNENAKLRVRQKEDEKLWRGLESKFSSTKTLCDQLTETLQHLASQVQDAEKDKGFFETKFNTSSEAINSLNQQMRDMSLRLDAAKEEITSRDKELEELKLEKQHKEMFYQTERCGTASLIEKKDAVITELETTAAERKLKIEKLNSQLEKLHLELTTKEDEVIHLVSIQEKLEKEKTNVQLSSDELFEKLVRSEQEVKKLDELVHYLIAELTELDKKNLTFKEKFDKLSGLYDTHFMLLRKDRDLASDRAQRSFDQLQGELFRVAAEKEALESSGNELSEKIVELQNDKESLISQLSGVRCSASQTIDKLEFEAKGLVLKNAETESVISKLKEEIDTLLESVRTSEDKKKELSIKLSSLEIESKDKYEKLQADAQRQVGELETLQKESESHQLQADLLAKEVNQLQTIIEEKGHLILQCNENEKNINQQIIKDKELLATAETKLAEAKKQYDLMLESKQLELSRHLKELSQRNDQAINEIRRKYDVEKHEIINSEKDKVEKIIKELSTKYDKGLSDCKEESKRQLLTIQEEHSSRILNIREEHESKELNLKAKYDQELRQNQIQAENELKERITALKSEHDAQLKAFKCQYEDDCKKLQEELDLQRKKEERQRALVQLQWKVMSDNPPEEQEVNSNKDYSHSSVKVKESRLGGNKRSEHITESPFVKAKVTSVSNILKEATNPKHHSKVTHREYEVETNNGRIPKRRKTRQTTMFQEPQRRSTRLTPKLMTPTIIAKETAMADHPHSANIGDLFSEGSLNPYADDPYAFD
- binding [6]: binds weakly
- binding [7]: binds weakly
